Taken from: PubChem BioAssay AID1224826 (NIAID, 2016)
The deposit covers about 17,000 reagents; this is an unselected part. About 1,110 of them (6.6%) were called active. 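Active means lowered or raised reporter signal; replicate intensities are raw and not normalised per plate.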 The numbers tell different reagents against one gene apart. A reagent listed more than once was tested more than once; the source does not tell the runs apart. No sequences are given here.

- Aim: 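Regulators of Tlr4 signalling leading to Tnf-alpha expression in macrophages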 (primary screen)
- Cells: RAW264.7 G9 macrophages from mouse bearing reporters for p65 (GFP) and the Tnf promoter (mCherry)
- Reagent: siRNA pool against mouse genes, 100 nM
- Duration: 16 h of LPS stimulation, after 2 days of siRNA transfection
- Challenge: bacterial lipopolysaccharide (Salmonella minnesota R595), 10 ng/ml
- Measured: 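Nuclear mCherry signal of the Tnf promoter reporter measured by imaging after background removal, scaled to each plate median and turned into robust z-scores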
- Reading the numbers: Tnf reporter robust z-score: higher = stronger Tnf promoter reporter signal after LPS; Tnf reporter intensity: higher = stronger Tnf promoter reporter signal
- Hit rule: 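a well counts as active at a score of -1.3 or below (Tlr4 knock-down control median) or above 3 (raised signal); controls and wells holding fewer than 50 cells are excluded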
- Calls: active = Tnf reporter clearly lowered or raised; inactive = no clear change in Tnf reporter

target	reagent no.	Tnf reporter robust z-score	fewer than 50 cells in well	Tnf reporter intensity, replicate 1	Tnf reporter intensity, replicate 2	call
4921536K21Rik (GeneID 67430)	1	-0.11	enough cells in well	200	109	inactive
Arpc1a (GeneID 56443)	1	-0.62	enough cells in well	137	130	inactive
Mxra8 (GeneID 74761)	1	3.13	enough cells in well	422	180	active
Gm20735 (GeneID 319574)	1	1.13	enough cells in well	267	241	inactive
Mrps27 (GeneID 218506)	1	1.17	enough cells in well	329	141	inactive
Defb5 (GeneID 81007)	1	1.29	enough cells in well	251	247	inactive
E030024N20Rik (GeneID 595139)	1	1.91	enough cells in well	305	187	inactive
Gsk3b (GeneID 56637)	1	1.96	enough cells in well	341	249	inactive
Slc1a6 (GeneID 20513)	1		fewer than 50 cells per well; well left out of calls	102	86.3	inactive
Phb1 (GeneID 18673)	1	-1	enough cells in well	144	144	inactive
Csn1s2a (GeneID 12993)	1	-1.63	enough cells in well	62.6	101	active
Fgf9 (GeneID 14180)	1	-0.79	enough cells in well	168	191	inactive
A730089K16Rik (GeneID 320411)	1	-0.31	enough cells in well	142	150	inactive
Insm1 (GeneID 53626)	1	0.47	enough cells in well	258	188	inactive
Btnl1 (GeneID 100038862)	1	0.8	enough cells in well	307	212	inactive
Rnf169 (GeneID 108937)	1	-0.22	enough cells in well	142	70.3	inactive
P2ry10b (GeneID 213438)	1	-1.23	enough cells in well	100	89.5	inactive
Cp (GeneID 12870)	1	-0.13	enough cells in well	194	224	inactive
Oser1 (GeneID 66680)	1		fewer than 50 cells per well; well left out of calls	163	33.7	inactive
En2 (GeneID 13799)	1	0.56	enough cells in well	254	295	inactive
P2ry14 (GeneID 140795)	1	-0.69	enough cells in well	138	274	inactive
Gykl1 (GeneID 14625)	1	0.46	enough cells in well	282	161	inactive
Glod5 (GeneID 69824)	1		fewer than 50 cells per well; well left out of calls	155	54	inactive
Cxcl14 (GeneID 57266)	1	-0.03	enough cells in well	236	197	inactive
Ankra2 (GeneID 68558)	1	-0.29	enough cells in well	205	151	inactive
Tspan14 (GeneID 52588)	1	0.16	enough cells in well	191	190	inactive
Rab39b (GeneID 67790)	1	-0.95	enough cells in well	77	98.9	inactive
Sc5d (GeneID 235293)	1	1.19	enough cells in well	185	173	inactive
Trpm1 (GeneID 17364)	1	0.12	enough cells in well	254	221	inactive
Slc10a6 (GeneID 75750)	1	1.92	enough cells in well	297	311	inactive
Stk39 (GeneID 53416)	1	-0.13	enough cells in well	169	0	inactive
Fntb (GeneID 110606)	1	0.57	enough cells in well	312	275	inactive
AI315068	1	-1.02	enough cells in well	88.4	168	inactive
Ccl28 (GeneID 56838)	1	-0.56	enough cells in well	231	139	inactive
Kcnd3 (GeneID 56543)	1	-0.69	enough cells in well	209	96.9	inactive
Cstl1 (GeneID 228756)	1	0.75	enough cells in well	275	175	inactive
Smyd2 (GeneID 226830)	1	-0.43	enough cells in well	243	181	inactive
Or2a52 (GeneID 258293)	1	0.52	enough cells in well	101	156	inactive
Recql (GeneID 19691)	1	1	enough cells in well	400	283	inactive
Ptbp3 (GeneID 230257)	1	-0.33	enough cells in well	106	122	inactive
Inha (GeneID 16322)	1	-0.38	enough cells in well	213	128	inactive
Pianp (GeneID 319352)	1	-0.66	enough cells in well	96.4	112	inactive
Nobox (GeneID 18291)	1	1.23	enough cells in well	295	188	inactive
Cep89 (GeneID 72140)	1	-1.34	enough cells in well	141	35.3	active
Cacna2d1 (GeneID 12293)	1	-1.35	enough cells in well	71.6	98.8	active
Nrbp2 (GeneID 223649)	1	0.6	enough cells in well	246	181	inactive
Heg1 (GeneID 77446)	1		fewer than 50 cells per well; well left out of calls	144	57.3	inactive
Heg1 (GeneID 77446)	2		fewer than 50 cells per well; well left out of calls	255	321	inactive
Eef1a2 (GeneID 13628)	1	-0.31	enough cells in well	215	196	inactive
Slc17a9 (GeneID 228993)	1	0	enough cells in well	215	198	inactive
Zdhhc7 (GeneID 102193)	1	0.78	enough cells in well	0	162	inactive
Ssu72 (GeneID 68991)	1	-0.61	enough cells in well	150	56.2	inactive
Ilf2 (GeneID 67781)	1	1	enough cells in well	326	196	inactive
Cidea (GeneID 12683)	1	-0.86	enough cells in well	158	164	inactive
Gpr119 (GeneID 236781)	1	1.46	enough cells in well	326	430	inactive
Gpr119 (GeneID 236781)	1	0.24	enough cells in well	219	342	inactive
Lcp2 (GeneID 16822)	1		fewer than 50 cells per well; well left out of calls	156	105	inactive
Igdcc4 (GeneID 56741)	1	-1.49	enough cells in well	100	69.4	active
Dmgdh (GeneID 74129)	1	-0.26	enough cells in well	208	192	inactive
Prph2 (GeneID 19133)	1	2.02	enough cells in well	442	153	inactive
Vmn1r172 (GeneID 81010)	1	-0.62	enough cells in well	94.8	92	inactive
Ubxn4 (GeneID 67812)	1	-2.01	enough cells in well	41.7	136	active
Thra (GeneID 21833)	1	-0.37	enough cells in well	208	114	inactive
Dstyk (GeneID 213452)	1	0.53	enough cells in well	162	214	inactive
Stxbp2 (GeneID 20911)	1	-2.26	enough cells in well	28.9	24.4	active
Chst3 (GeneID 53374)	1	1.58	enough cells in well	257	263	inactive
Sgms1 (GeneID 208449)	1	0.65	enough cells in well	212	221	inactive
Rpl28 (GeneID 19943)	1	-0.96	enough cells in well	79.9	92.9	inactive
Bag3 (GeneID 29810)	1	-0.57	enough cells in well	126	118	inactive
Calm3 (GeneID 12315)	1	0.33	enough cells in well	234	162	inactive
Zfp40 (GeneID 22700)	1	2.08	enough cells in well	198	228	inactive
Pax8 (GeneID 18510)	1	0.87	enough cells in well	290	252	inactive
Ubqln4 (GeneID 94232)	1	-0.72	enough cells in well	170	129	inactive
Hsdl1 (GeneID 72552)	1		fewer than 50 cells per well; well left out of calls	128	33.9	inactive
9330155M09Rik (GeneID 320756)	1	-0.1	enough cells in well	180	176	inactive

11 entries from above in another layout.
target,reagent no.,Tnf reporter robust z-score,fewer than 50 cells in well,"Tnf reporter intensity, replicate 1","Tnf reporter intensity, replicate 2",call
Oser1 (GeneID 66680),1,,fewer than 50 cells per well; well left out of calls,163,33.7,inactive
En2 (GeneID 13799),1,0.56,enough cells in well,254,295,inactive
P2ry14 (GeneID 140795),1,-0.69,enough cells in well,138,274,inactive
Gykl1 (GeneID 14625),1,0.46,enough cells in well,282,161,inactive
Glod5 (GeneID 69824),1,,fewer than 50 cells per well; well left out of calls,155,54,inactive
Cxcl14 (GeneID 57266),1,-0.03,enough cells in well,236,197,inactive
Ankra2 (GeneID 68558),1,-0.29,enough cells in well,205,151,inactive
Tspan14 (GeneID 52588),1,0.16,enough cells in well,191,190,inactive
Rab39b (GeneID 67790),1,-0.95,enough cells in well,77,98.9,inactive
Sc5d (GeneID 235293),1,1.19,enough cells in well,185,173,inactive
Trpm1 (GeneID 17364),1,0.12,enough cells in well,254,221,inactive
